Test results as given in article PMC11684077.

System: MBP-TGA4 (Solanum lycopersicum)
Assay: EMSA
Conditions: LightShift Chemiluminescent EMSA Kit (Thermo 20148) guidelines; 3'-biotin probes; competitors 1,000-fold; pH and temperature not stated; recombinant protein; protein details: MBP; label: 3' biotin

“AAACACACGTCAGGCTTCCA (double strand) [NRT2.1 probe]”: binds.
“TATCTTTTTGACGTGCAATA (double strand) [NRT1.1 probe]”: binds.

For at least one entry, the source does not settle the construct or the ends of the probe.
